Library screening results

Values are the deposited “Percent Effect”, in %.
The record does not define 0% and 100%; most values in the screen are far below 50% and negative numbers occur (in some assays of this library far below -100).
This is an unselected part of the compounds tested.
Two or more numbers in one place are separate tests of the same structure; such repeats can differ widely.

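Viability assay of Plasmodium falciparum sporozoites; the read-out is not stated. The concentration is filed as 10 mM, unlikely as a test dose, so the dose is not known. Direction is inferred from retests: higher values go with lower viability. Strong results were mostly tested again. About 34,000 compounds were tested under these conditions; 0.84% (about 280) showed 50% or more at least once.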

COc1cc(C(=O)NCC2CCCO2)nc2c(C)cc(F)cc12 (centres undefined) read -11.26%.
CNc1cc(C)nc(C2CN(Cc3ccc(C)nc3)CCO2)c1 (centres undefined) read -10.55%.
Cc1cc(O)c(OCC(=O)/N=c2/[nH]c3c(s2)CCC3)cn1 read -18.78% & 14.58%.
CCc1ncncc1C(=O)NCCNc1ncnc2sccc12 read -29.76% & -29.03%.
CNC(=O)NC(=O)COc1c(C(C)=O)ccc(Cl)c1Cl read -8.457%.
Cn1cccc1C(=O)NCc1cn2c(n1)CN(Cc1cccnc1)CC2.O=C(O)C(F)(F)F.O=C(O)C(F)(F)F read 4.948%.
O=C(c1cccc(OC2CCCC2)c1)N1CCCC(n2cncn2)C1 (centres undefined) read -4.16%.
COCC(=O)NCc1cnc(C)nc1-c1cn(C)c2ccc(OC)cc12 read 5.566%.
COCCN1CCN(CC(=O)N(C)Cc2ccc(C)o2)CC1C (centres undefined) read 3.73%.
CC(O)CN1CCN(C(=O)c2cccn2Cc2cccnc2)CC1 (centres undefined) read 11.08%.
Cc1ccc(CN2CCc3c(C(=O)N(C)C)nn(C)c3C2)s1.O=C(O)C(F)(F)F read 1.59%.
Cc1cc(Nc2ccc(F)cn2)cc(C2CCCN2)n1 (centres undefined) read 0.1268%.
CN1CCN(Cc2cnc3n2CCN(C(=O)c2ccoc2)C3)CC1 read 1.178%.
CCOCc1ccccc1NC(=O)NCC(c1cnn(C)c1)N(C)C (centres undefined) read 5.451%.
CN(Cc1ccccn1)C1COC2(CCN(Cc3nccs3)CC2)C1 (centres undefined) read -2.489%.
[H][C@@]12CS(=O)(=O)C[C@]1([H])N(Cc1cnc(C)nc1)CCN2C(=O)CC read 4.67%.
Cc1ccoc1C(=O)N1CCOCC2(CCN(c3ncccn3)C2)C1.O=C(O)C(F)(F)F (centres undefined) read -0.2307%.
O=C(NCCCn1cccn1)C1CCC(=O)N(Cc2ccccc2F)C1 (centres undefined) read -14.3%.
CCSc1ccccc1C(=O)N(CCOC)Cc1ccoc1 read 7.073%.
COc1ccc(S(=O)(=O)N2CCCC3(CCCN3S(C)(=O)=O)C2)cc1 (centres undefined) read 2.768%.
O=C(NCCCn1cncn1)N1CCCCCC1 read 2.681%.
O=C(O)C(F)(F)F.O=S(=O)(c1cccs1)N1CC[C@H](O)[C@@H]1Cc1ccncc1 read -12.34%.
O=C(CCc1ccc(=O)[nH]n1)N1CCCC(COc2ccc(F)cc2)C1 (centres undefined) read -17.69%.
Cc1cccc(NC(=O)c2[nH]nc(C(C)C)c2Br)n1 read 102.6% & 98.53% & 104.2%.
CNCC(=O)N1CCCC1c1n[nH]cc1-c1ccccc1F.Cl (centres undefined) read 5.37%.
Cc1nn(C)c(N2CCOCC2)c1CNC1CCc2cc(F)ccc21.Cl (centres undefined) read 6.933%.
O=C(O)C(F)(F)F.[H][C@@]12OCCN(C(=O)c3ccoc3C)[C@@]1([H])CC[C@H]2Oc1cccnc1 read 13.45%.
CCn1cc(Cn2cc(Cl)c(N)n2)c(C)n1 read -0.4353%.
CCn1c(C)nnc1CN(C)C1CCN(CCn2cccn2)C1 (centres undefined) read -4.855%.
Cc1cc(C)n(CC(=O)Nc2cc(-c3ccncc3)[nH]n2)n1 read 0.2176%.
Cc1cccc(Sc2nccn(C)c2=O)c1 read 0.6519%.
COCC(=O)N1CC[C@@H](O)[C@@H]1Cc1ccccc1 read -16.67%.
Cc1ccc2c(c1)C1(CCNCC1)CC2N1CCOCC1 (centres undefined) read 8.526%.

The last 4 entries again:

Compound,Percent Effect
Cc1cc(C)n(CC(=O)Nc2cc(-c3ccncc3)[nH]n2)n1,0.2176%
Cc1cccc(Sc2nccn(C)c2=O)c1,0.6519%
COCC(=O)N1CC[C@@H](O)[C@@H]1Cc1ccccc1,-16.67%
Cc1ccc2c(c1)C1(CCNCC1)CC2N1CCOCC1 (centres undefined),8.526%

Source: ChEMBL document CHEMBL3988442, “University of Dundee, Small-Polar-MMV Screening Library” (2021).